Results are given in words; binding and its absence hold for the method and conditions named. Some results given as binding are weak or reduced against the parent protein; the word gives no strength. Sequences can lack the tags named with a protein.
T1: DDR1-Fc (UniProt Q03146)
T1 sequence: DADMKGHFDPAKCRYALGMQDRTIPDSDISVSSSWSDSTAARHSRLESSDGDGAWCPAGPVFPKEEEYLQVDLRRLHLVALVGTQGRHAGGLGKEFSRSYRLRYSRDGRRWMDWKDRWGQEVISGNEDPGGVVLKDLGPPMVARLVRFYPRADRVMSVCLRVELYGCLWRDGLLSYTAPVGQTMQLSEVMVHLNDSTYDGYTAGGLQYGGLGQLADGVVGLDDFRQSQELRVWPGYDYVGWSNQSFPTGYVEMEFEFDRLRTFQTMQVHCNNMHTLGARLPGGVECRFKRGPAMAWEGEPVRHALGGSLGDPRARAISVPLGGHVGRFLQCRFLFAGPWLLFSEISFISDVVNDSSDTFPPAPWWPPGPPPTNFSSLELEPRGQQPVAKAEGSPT

By UniProt entry, the sequences of proteins in these tests, tags left out. Where a name states a change or a piece, a line headed by the entry shows the natural chain unless it says otherwise. Residues count along the entry.
UniProt P02452: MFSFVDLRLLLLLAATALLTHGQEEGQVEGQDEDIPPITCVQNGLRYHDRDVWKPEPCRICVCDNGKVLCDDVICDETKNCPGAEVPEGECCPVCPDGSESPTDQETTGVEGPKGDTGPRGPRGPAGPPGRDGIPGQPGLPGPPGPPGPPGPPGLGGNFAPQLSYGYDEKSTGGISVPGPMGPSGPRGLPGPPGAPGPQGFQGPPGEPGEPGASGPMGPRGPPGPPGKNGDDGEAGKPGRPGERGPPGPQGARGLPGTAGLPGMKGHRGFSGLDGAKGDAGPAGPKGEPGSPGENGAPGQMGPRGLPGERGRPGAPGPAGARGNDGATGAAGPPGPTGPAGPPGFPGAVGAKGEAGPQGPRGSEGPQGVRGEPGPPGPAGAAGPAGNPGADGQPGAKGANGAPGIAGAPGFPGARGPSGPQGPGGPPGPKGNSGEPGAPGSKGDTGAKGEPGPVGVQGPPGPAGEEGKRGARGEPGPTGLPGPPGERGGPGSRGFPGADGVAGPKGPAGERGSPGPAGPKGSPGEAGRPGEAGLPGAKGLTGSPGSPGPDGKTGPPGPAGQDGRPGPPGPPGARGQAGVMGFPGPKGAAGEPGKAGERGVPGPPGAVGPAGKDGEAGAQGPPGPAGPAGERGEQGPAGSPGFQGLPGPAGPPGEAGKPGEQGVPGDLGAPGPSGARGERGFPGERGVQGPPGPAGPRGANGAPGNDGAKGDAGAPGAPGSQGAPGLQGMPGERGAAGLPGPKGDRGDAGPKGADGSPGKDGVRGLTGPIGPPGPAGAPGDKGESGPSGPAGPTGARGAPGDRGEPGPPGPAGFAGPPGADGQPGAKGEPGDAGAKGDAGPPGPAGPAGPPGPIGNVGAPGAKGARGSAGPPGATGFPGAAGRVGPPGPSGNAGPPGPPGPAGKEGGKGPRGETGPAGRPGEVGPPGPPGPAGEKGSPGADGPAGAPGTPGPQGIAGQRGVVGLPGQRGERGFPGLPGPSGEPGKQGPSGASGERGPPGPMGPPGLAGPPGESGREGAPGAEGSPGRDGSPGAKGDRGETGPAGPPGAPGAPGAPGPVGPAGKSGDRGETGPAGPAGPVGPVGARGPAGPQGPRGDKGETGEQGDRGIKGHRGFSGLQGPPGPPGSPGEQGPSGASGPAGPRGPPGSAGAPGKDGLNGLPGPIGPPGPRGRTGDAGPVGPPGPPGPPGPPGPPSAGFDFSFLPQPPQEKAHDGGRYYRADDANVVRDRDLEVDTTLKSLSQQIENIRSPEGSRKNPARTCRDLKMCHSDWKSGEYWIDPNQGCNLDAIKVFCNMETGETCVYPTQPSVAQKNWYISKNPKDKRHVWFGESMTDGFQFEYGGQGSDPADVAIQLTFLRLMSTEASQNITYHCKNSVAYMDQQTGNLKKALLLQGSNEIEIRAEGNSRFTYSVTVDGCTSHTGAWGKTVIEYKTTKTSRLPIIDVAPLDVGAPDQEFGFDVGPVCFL
UniProt P02769, residues 25-607: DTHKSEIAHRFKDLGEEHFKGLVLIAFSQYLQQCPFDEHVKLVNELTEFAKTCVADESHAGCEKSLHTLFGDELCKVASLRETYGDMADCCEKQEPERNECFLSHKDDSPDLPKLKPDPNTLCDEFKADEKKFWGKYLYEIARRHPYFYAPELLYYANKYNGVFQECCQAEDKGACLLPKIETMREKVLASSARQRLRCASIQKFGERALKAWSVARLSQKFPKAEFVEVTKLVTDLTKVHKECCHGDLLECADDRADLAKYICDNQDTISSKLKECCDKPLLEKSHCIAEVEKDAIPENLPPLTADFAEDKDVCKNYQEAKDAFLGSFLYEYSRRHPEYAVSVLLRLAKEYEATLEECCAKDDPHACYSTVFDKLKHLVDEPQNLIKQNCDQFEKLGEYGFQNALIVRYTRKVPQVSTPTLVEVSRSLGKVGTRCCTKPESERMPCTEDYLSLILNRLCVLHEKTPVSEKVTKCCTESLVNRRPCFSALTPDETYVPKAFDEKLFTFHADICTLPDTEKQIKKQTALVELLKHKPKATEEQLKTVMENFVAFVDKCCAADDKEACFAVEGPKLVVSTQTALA


Experiments:
[1] = molecular target: collagen-I (UniProt P02452); experiment: ELISA; collagen-I (2 μg/mL), C1q (8 μg/mL) or BSA coated on the plate; sDDR2 (0.1, 0.5, 2, 8 μg/mL) added, 37 °C, 2 h; detected with mouse anti-DDR2; both purified
[2] = molecular target: Bovine serum albumin (bovine) (UniProt P02769); experiment: as above
[3] = molecular target: T1, DDR1-Fc; experiment: far-Western, overlay or dot blot; DDR2-Fc, DDR1-Fc or Fc (20 μg per spot) blotted on nitrocellulose; biotinylated C1qA peptide (200 nM) in 3% skim milk, RT, 2 h; detected with streptavidin; both purified

Binder | binding [1] | binding [2] | binding [3]
Recombinant human DDR2 possessing the ectodomain of DDR2 (Gln24-Arg399) with 6 × His-tag on C-terminal (domain or fragment, UniProt Q16832 24-399) QVNPAICRYPLGMSGGQIPDEDITASSQWSESTAAKYGRLDSEEGDGAWCPEIPVEPDDLKEFLQIDLHTLHFITLVGTQGRHAGGHGIEFAPMYKINYSRDGTRWISWRNRHGKQVLDGNSNPYDIFLKDLEPPIVARFVRFIPVTDHSMNVCMRVELYGCVWLDGLVSYNAPAGQQFVLPGGSIIYLNDSVYDGAVGYSMTEGLGQLTDGVSGLDDFTQTHEYHVWPGYDYVGWRNESATNGYIEIMFEFDRIRNFTTMKVHCNNMFAKGVKIFKEVQCYFRSEASEWEPNAISFPLVLDDVNPSARFVTVPLHHRMASAIKCQYHFADTWMMFSEITFQSDAAMYNNSEALPTSPMAPTTYDPMLKVDDSNTR | binds | no binding (tested: 0.1, 0.5, 2, and 8 μg/mL sDDR2) | 
GSKGEQGEPGAPGI (biotin on the N-terminus) [C1qA peptide (Biotin-…)] |  |  | binds

Source: paper PMC8489103
